The source of these data is the supplement of paper PMC4604168 (melanoma cell lines).

Some of the results follow. Single values are uncertain, as repeats are few or missing.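 Cells were imaged in 1,536-well plates, and nuclei stained with an antibody against cleaved PARP were counted against all DNA-stained nuclei to give the apoptosis fraction. Screening doses were chosen to leave most cells alive, and resting and induced cleaved-PARP levels differ strongly between cell lines.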

The assay relates to UACC62. Nature of the assay: cleaved PARP positive nuclei fraction relative to DMSO control; melanoma cells; higher = more apoptosis. As to conditions: library dose: low library concentration; 72 h.
For `CNC(=O)c1cc(Oc2ccc(NC(=O)Nc3ccc(Cl)c(C(F)(F)F)c3)cc2)ccn1` [sorafenib] + Cc1cc(SCc2sc(-c3ccc(C(F)(F)F)c(F)c3)nc2C)ccc1OCC(=O)O [GW0742] (first compound 0.4 µM, partner dose 2 µM), the “cleaved PARP positive nuclei fraction” value is 85.5%. To `Cn1cc(C2=C(c3cn(C4CCN(Cc5ccccn5)CC4)c4ccccc34)C(=O)NC2=O)c2ccccc21` [Enzastaurin] + COC(=O)c1sccc1S(=O)(=O)Nc1ccc(Nc2ccccc2)cc1OC [GSK0660] (first compound 0.8 µM, partner dose 1 µM) belongs 58.1%. To `COc1cc([C@@H]2c3cc4c(cc3[C@@H](O[C@@H]3O[C@@H]5CO[C@@H](C)O[C@H]5[C@H](O)[C@H]3O)[C@H]3COC(=O)[C@H]23)OCO4)cc(OC)c1O` [etoposide] + C/C(O)=C(\C#N)C(=O)Nc1cc(Br)ccc1Br [LFM-A13] (first compound 0.02 µM, partner dose 2 µM) belongs 555%; to `Cn1cnc2c(F)c(Nc3ccc(Br)cc3Cl)c(C(=O)NOCCO)cc21` [selumetinib] + O=C(Oc1ccc([N+](=O)[O-])cc1)N1CCC(C(O)(c2ccc3c(c2)OCO3)c2ccc3c(c2)OCO3)CC1 [JZL184] (first compound 0.015 µM, partner dose 1 µM), 1050%; to `Nc1ncn([C@H]2C[C@H](O)[C@@H](CO)O2)c(=O)n1` [decitabine] + O=C(Oc1ccc([N+](=O)[O-])cc1)N1CCC(C(O)(c2ccc3c(c2)OCO3)c2ccc3c(c2)OCO3)CC1 [JZL184] (first compound 0.1 µM, partner dose 1 µM), 110%. To `C[As](C)SC[C@H](NC(=O)CC[C@H](N)C(=O)O)C(=O)NCC(=O)O` [Darinaparsin] + O=C(O)c1ccc(-c2c[nH]c3ncc(-c4ccccc4)cc23)cc1C1CCCC1 [GSK650394] (first compound 0.4 µM, partner dose 0.16 µM) belongs 64.4%; to `O=C(Nc1cc(C(F)(F)F)cc(C(F)(F)F)c1)c1cc(Cl)ccc1O` + O=C(Oc1ccc([N+](=O)[O-])cc1)N1CCC(C(O)(c2ccc3c(c2)OCO3)c2ccc3c(c2)OCO3)CC1 [JZL184] (first compound 0.016 µM, partner dose 1 µM), 28%. Consider `Cn1cc(C2=C(c3cn(C4CCN(Cc5ccccn5)CC4)c4ccccc34)C(=O)NC2=O)c2ccccc21` [Enzastaurin] + O=C(Oc1ccc([N+](=O)[O-])cc1)N1CCC(C(O)(c2ccc3c(c2)OCO3)c2ccc3c(c2)OCO3)CC1 [JZL184] (first compound 0.8 µM, partner dose 1 µM), for which the “cleaved PARP positive nuclei fraction” value was 65.4%. Consider `N.N.[Cl][Pt][Cl]` [cisplatin] + CO[C@@H]1[C@H](N(C)C(=O)c2ccccc2)C[C@H]2O[C@]1(C)n1c3ccccc3c3c4c(c5c6ccccc6n2c5c31)C(=O)NC4 [Midostaurin] (first compound 1.6 µM, partner dose 0.08 µM), for which the “cleaved PARP positive nuclei fraction” value stood at 180%. Consider `CCN(CC)CCNC(=O)c1c(C)[nH]c(/C=C2\C(=O)Nc3ccc(F)cc32)c1C` [sunitinib] + O=C(Oc1ccc([N+](=O)[O-])cc1)N1CCC(C(O)(c2ccc3c(c2)OCO3)c2ccc3c(c2)OCO3)CC1 [JZL184] (first compound 0.4 µM, partner dose 1 µM), for which the “cleaved PARP positive nuclei fraction” value turned out to be 105%. To `N.N.[Cl][Pt][Cl]` [cisplatin] + Oc1cc(-c2nc(-c3ccccc3)[nH]c2-c2ccncc2)ccc1Cl [L779450] (first compound 1.6 µM, partner dose 0.2 µM) belongs 56.4%; to `Clc1ccc(Nc2nnc(Cc3ccncc3)c3ccccc23)cc1` [vatalanib] + O=C(Oc1ccc([N+](=O)[O-])cc1)N1CCC(C(O)(c2ccc3c(c2)OCO3)c2ccc3c(c2)OCO3)CC1 [JZL184] (first compound 2 µM, partner dose 1 µM), 255%; to `C[As](C)SC[C@H](NC(=O)CC[C@H](N)C(=O)O)C(=O)NCC(=O)O` [Darinaparsin] + OCCn1cc(-c2cnc3nnn(Cc4ccc5ncccc5c4)c3n2)cn1 [PF04217903] (first compound 0.4 µM, partner dose 1 µM), 113%. In the case of `C[C@@H](N)c1ccc(C(=O)Nc2ccnc3[nH]ccc23)cc1` + Cc1cc(SCc2sc(-c3ccc(C(F)(F)F)c(F)c3)nc2C)ccc1OCC(=O)O [GW0742] (first compound 0.4 µM, partner dose 2 µM) it was 937%; in that of `N.N.[Cl][Pt][Cl]` [cisplatin] + Cn1cncc1[C@@](N)(c1ccc(Cl)cc1)c1ccc2c(c1)c(-c1cccc(Cl)c1)cc(=O)n2C [tipifarnib] (first compound 1.6 µM, partner dose 0.01 µM), 78.4%.
